Assay [1] deals with T1, MUS81 (full length, human) (human) (UniProt Q96NY9).
T1 sequence: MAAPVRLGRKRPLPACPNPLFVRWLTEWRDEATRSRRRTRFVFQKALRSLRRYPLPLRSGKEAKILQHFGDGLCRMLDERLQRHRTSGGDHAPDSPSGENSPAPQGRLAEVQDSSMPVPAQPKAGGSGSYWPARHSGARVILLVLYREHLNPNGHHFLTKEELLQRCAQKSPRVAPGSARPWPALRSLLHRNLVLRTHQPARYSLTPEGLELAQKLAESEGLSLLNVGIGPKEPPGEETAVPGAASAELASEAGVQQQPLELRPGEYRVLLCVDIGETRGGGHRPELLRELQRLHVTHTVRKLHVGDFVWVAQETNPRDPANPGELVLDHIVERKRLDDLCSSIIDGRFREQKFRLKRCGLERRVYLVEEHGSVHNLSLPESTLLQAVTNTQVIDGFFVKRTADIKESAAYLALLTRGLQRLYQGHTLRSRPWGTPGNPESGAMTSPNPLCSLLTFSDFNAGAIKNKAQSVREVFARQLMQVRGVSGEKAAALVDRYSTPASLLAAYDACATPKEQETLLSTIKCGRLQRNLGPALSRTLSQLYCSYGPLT
Description: co-purification; both proteins co-expressed in E. coli; lysate passed over Q Sepharose and SP Sepharose, then His-Select Nickel Affinity Gel and heparin; the complex was kept through all steps.

For assay [2], the target named is T2, truncated MUS81 (amino acids 246-551) (human) (UniProt Q96NY9).
T2 sequence: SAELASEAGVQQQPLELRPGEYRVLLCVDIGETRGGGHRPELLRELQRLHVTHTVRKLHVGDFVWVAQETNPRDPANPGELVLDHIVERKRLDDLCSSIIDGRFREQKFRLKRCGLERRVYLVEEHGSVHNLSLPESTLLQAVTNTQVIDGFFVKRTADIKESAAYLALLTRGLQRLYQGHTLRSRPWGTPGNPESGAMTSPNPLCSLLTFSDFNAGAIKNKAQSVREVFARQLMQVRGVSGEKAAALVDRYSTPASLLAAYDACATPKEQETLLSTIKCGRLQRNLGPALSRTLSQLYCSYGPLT
The assay is described as above.

No constants are given. Whether binding was seen depends on the method and setting. Some entries that bind do so weakly or less than the wild type.

B1: EME1 (full length, human) (protein, UniProt Q96AY2 1-570)
chain: MALKKSSPSLDSGDSDSEELPTFAFLKKEPSSTKRRQPEREEKIVVVDISDCEASCPPAPELFSPPVPEIAETVTQTQPVRLLSSESEDEEEFIPLAQRLTCKFLTHKQLSPEDSSSPVKSVLDHQNNEGASCDWKKPFPKIPEVPLHDTPERSAADNKDLILDPCCQLPAYLSTCPGQSSSLAVTKTNSDILPPQKKTKPSQKVQGRGSHGCRQQRQARQKESTLRRQERKNAALVTRMKAQRPEECLKHIIVVLDPVLLQMEGGGQLLGALQTMECRCVIEAQAVPCSVTWRRRAGPSEDREDWVEEPTVLVLLRAEAFVSMIDNGKQGSLDSTMKGKETLQGFVTDITAKTAGKALSLVIVDQEKCFSAQNPPRRGKQGANKQTKKQQQRQPEASIGSMVSRVDAEEALVDLQLHTEAQAQIVQSWKELADFTCAFTKAVAEAPFKKLRDETTFSFCLESDWAGGVKVDLAGRGLALVWRRQIQQLNRVSLEMASAVVNAYPSPQLLVQAYQQCFSDKERQNLLADIQVRRGEGVTSTSRRIGPELSRRIYLQMTTLQPHLSLDSAD
On to B1, for which the binding entry in assay [1] is recorded as “binds”.

B2: truncated EME1 (amino acids 178-570) (domain or fragment, UniProt Q96AY2 178-570)
chain: GQSSSLAVTKTNSDILPPQKKTKPSQKVQGRGSHGCRQQRQARQKESTLRRQERKNAALVTRMKAQRPEECLKHIIVVLDPVLLQMEGGGQLLGALQTMECRCVIEAQAVPCSVTWRRRAGPSEDREDWVEEPTVLVLLRAEAFVSMIDNGKQGSLDSTMKGKETLQGFVTDITAKTAGKALSLVIVDQEKCFSAQNPPRRGKQGANKQTKKQQQRQPEASIGSMVSRVDAEEALVDLQLHTEAQAQIVQSWKELADFTCAFTKAVAEAPFKKLRDETTFSFCLESDWAGGVKVDLAGRGLALVWRRQIQQLNRVSLEMASAVVNAYPSPQLLVQAYQQCFSDKERQNLLADIQVRRGEGVTSTSRRIGPELSRRIYLQMTTLQPHLSLDSAD
Regarding B2, the binding result in assay [2] is reported as “binds”.

(Values after publication PMC12990037, “Discovery of Two Structurally Distinct Classes of Inhibitors Targeting the Nuclease MUS81 and Enhancing Efficacy of Chemotherapy in Cancer Cells” (Journal of Medicinal Chemistry, 2026).)
